Values joined by “and” are separate entries in the source; they are usually repeats but may differ in a detail not shown here. Equal values may be shown once. Where a name gives a salt, the structure may show the parent alone. ± gives the standard deviation of the averaged measurements. This is one part of the list. The data scatter; read single values as rough.
Test system: Salmonella enterica serovar Typhimurium ST313 D23580
Experiment: normalized bacterial growth (OD600 20 h minus 0 h, interquartile-mean normalized) (fraction of plate interquartile mean); higher = more bacterial growth (less inhibition)
Details: LPM (pH 5.8, low phosphate, low Mg2+), concentration: 10 µM, temperature: 37 °C

Structure (SMILES) | normalized bacterial growth
Cn1c(=O)c2c(ncn2CC(O)CO)n(C)c1=O (stereo not drawn) | 1.24
CCCc1nc(C(C)(C)O)c(C(=O)OCc2oc(=O)oc2C)n1Cc1ccc(-c2ccccc2-c2nnn[nH]2)cc1 | 0.847
NC(=O)c1cccnc1 | 1.09
NC(=O)C1(N2CCCCC2)CCN(CCCC(=O)c2ccc(F)cc2)CC1 | 0.881
CNC1(C)C2CCC(C2)C1(C)C (stereo not drawn) [Mecamylamine hydrochloride] | 0.976
CCCCCCCCCCCCCCCC[N+](C)(C)C | 1.23
COc1ccc([C@H]2Oc3cc(OC)cc(OC)c3C[C@H]2O)cc1 | 0.876
CC(C)N(CCC(=O)c1ccc2ccccc2c1)Cc1ccccc1 | 0.449
CC[C@]12CCCN3CCc4c(n(c5ccccc45)[C@@](O)(C(=O)OC)C1)[C@@H]32 | 1.11 ± 0.097
COc1ccc2c(c1)OCC(Cc1ccc(OC)c(OC)c1)C2=O (stereo not drawn) | 0.831
O=c1[nH]c(=O)n([C@H]2C[C@H](O)[C@@H](CO)O2)cc1/C=C/Br [(E)-5-(2-Bromovinyl)-2'-deoxyuridine] | 0.835
CCOc1nc2cccc(C(=O)OC(C)OC(=O)OC3CCCCC3)c2n1Cc1ccc(-c2ccccc2-c2nn[nH]n2)cc1 (stereo not drawn) | 1.36
COc1c(O)cc(O)c2c(=O)cc(-c3ccccc3)oc12 | 0.961
O=c1cc(O)cc(/C=C/c2ccc(O)c(O)c2)o1 [Hispidin] | 1.17
Nc1ccc(S(N)(=O)=O)cc1 | 1.16
Nc1ncnc2c1ncn2[C@H]1C[C@H](O)[C@@H](CO)O1 | 0.984
CC(CCc1ccc(O)cc1)NCCc1ccc(O)c(O)c1 (stereo not drawn) | 0.77
CC(CCc1ccc(O)cc1)NCCc1ccc(O)c(O)c1 (stereo not drawn) [Dobutamine hydrochloride] | 0.828
CCCCC#Cc1nc(N)c2ncn([C@@H]3O[C@H](C(=O)NCC)[C@@H](O)[C@H]3O)c2n1 | 1.05
O=C(O)/C=C/c1ccccc1 | 1.19
N[C@@H](CCC(=O)N[C@@H](CSN=O)C(=O)NCC(=O)O)C(=O)O [S-Nitrosoglutathione] | 0.81
COC1=C(OC)C(=O)c2ccccc2C1=O ["2,3-Dimethoxy-1,4-naphthoquinone"] | 1.01
O=C(O)/C=C/C=C/c1ccc2c(c1)OCO2 | 1.06
CC(C)CCC[C@@H](C)[C@H]1CC[C@H]2[C@@H]3CC=C4C[C@@H](O)CC[C@]4(C)[C@H]3CC[C@]12C | 0.993

Structure (SMILES) | normalized bacterial growth
CCCCCC1C(=O)CCC1CC(=O)O (stereo not drawn) | 0.893
Nc1ccn([C@@H]2O[C@H](CO)[C@@H](O)[C@H]2O)c(=O)n1 | 1
CN(C)CCC(c1ccccc1)c1ccccn1 (stereo not drawn) [Pheniramine maleate] | 1.03
C=CC(C1=CC(=O)C(OC)=CC1=O)c1ccc(O)cc1 (stereo not drawn) | 0.947
C=CCc1ccccc1OCC(O)CNC(C)C (stereo not drawn) [Alprenolol hydrochloride] | 1.05
NC[C@H]1CC[C@H](C(=O)O)CC1 | 1.06
CCCCOc1ccc(CC(=O)NO)cc1 | 1.21
CC(=O)OC(C)C[N+](C)(C)C (stereo not drawn) [Acetyl-beta-methylcholine chloride] | 1.13
CCCCC[C@H](CC(=O)NO)C(=O)N[C@H](C(=O)N1CCC[C@H]1CO)C(C)C [Actinonin] | 0.734
Cc1nc(N=Nc2ccc(S(=O)(=O)O)cc2S(=O)(=O)O)c(COP(=O)(O)O)c(C=O)c1O | 0.707
Cc1ccc(O)c([C@H](CCN(C(C)C)C(C)C)c2ccccc2)c1 | 1.28
CCN1/C(=C/C(C)=O)Sc2ccc(OC)cc21 | 1.02
CN(C)C(=O)N=NC(=O)N(C)C ["N,N,N',N'-Tetramethylazodicarboxamide"] | 0.891
Nc1nc(=O)c2c([nH]1)NCC(CNc1ccc(C(=O)N[C@@H](CCC(=O)O)C(=O)O)cc1)N2C=O (stereo partly drawn) | 1.1
O=C(O)c1cc(=O)c2c(OCC(O)COc3cccc4oc(C(=O)O)cc(=O)c34)cccc2o1 | 1.28
COc1cc2c(cc1OC)[C@H]1[C@@H](C)c3ccc(OC)c(OC)c3CN1CC2 | 1.05
C[C@H](CCC(=O)NCC(=O)O)[C@H]1CC[C@H]2[C@@H]3[C@H](O)C[C@@H]4C[C@H](O)CC[C@]4(C)[C@H]3C[C@H](O)[C@]12C [Glycocholic acid] | 0.854
Clc1ccc(COC(Cn2ccnc2)c2ccc(Cl)cc2Cl)cc1 (stereo not drawn) | 1.42
Clc1ccccc1C(c1ccccc1)(c1ccccc1)n1ccnc1 [Clotrimazole] | 0.414
NC(=O)NO [Hydroxyurea] | 1.01
CO/N=C1\CN(c2nc3c(cc2F)c(=O)c(C(=O)O)cn3C2CC2)CC1CN (stereo not drawn) | 0.224
CC(C)=CCC/C(C)=C/COc1ccc2ccc(=O)oc2c1 | 0.561
COc1cc(CC(=O)O)ccc1O [4-Hydroxy-3-methoxyphenylacetic acid] | 1.17
COc1c(OC)c2occc2c2oc(=O)ccc12 | 0.791

In another format: entries from further up

| Structure (SMILES) | normalized bacterial growth |
| --- | --- |
| CCCCCC1C(=O)CCC1CC(=O)O (stereo not drawn) | 0.893 |
| CCCCOc1ccc(CC(=O)NO)cc1 | 1.21 |
| Cc1nc(N=Nc2ccc(S(=O)(=O)O)cc2S(=O)(=O)O)c(COP(=O)(O)O)c(C=O)c1O | 0.707 |
| CN(C)C(=O)N=NC(=O)N(C)C ["N,N,N',N'-Tetramethylazodicarboxamide"] | 0.891 |
| Nc1nc(=O)c2c([nH]1)NCC(CNc1ccc(C(=O)N[C@@H](CCC(=O)O)C(=O)O)cc1)N2C=O (stereo partly drawn) | 1.1 |
| Clc1ccccc1C(c1ccccc1)(c1ccccc1)n1ccnc1 [Clotrimazole] | 0.414 |
| CO/N=C1\CN(c2nc3c(cc2F)c(=O)c(C(=O)O)cn3C2CC2)CC1CN (stereo not drawn) | 0.224 |

The listing continues:

Structure (SMILES) | normalized bacterial growth
CN1CCC[C@H]1c1cccnc1 [(-)-Nicotine hydrogen tartrate salt] | 0.897
CN1CCC[C@H]1c1cccnc1 | 0.984 and 0.76
CCCC(C(=O)OCCN(CC)CC)(c1ccccc1)c1ccccc1 [SKF-525A hydrochloride] | 0.956
CC(=O)NCCc1ccc(O)c(O)c1 [N-Acetyldopamine monohydrate] | 1.12
O=P(O)(O)C(O)(Cc1cccnc1)P(=O)(O)O | 1.66
N[C@@H](Cc1ccc(F)cc1)C(=O)O [p-Fluoro-L-phenylalanine] | 1.12
Nc1nccc2c1ncn2[C@@H]1O[C@H](CO)[C@@H](O)[C@H]1O [3-deazaadenosine] | 1.03
CCN(CC)C(=O)N1CCN(C)CC1 | 1.13
CC[C@]1(O)C[C@@H]2CN(CCc3c([nH]c4ccccc34)[C@@](C(=O)OC)(c3cc4c(cc3OC)N(C)[C@H]3[C@@](O)(C(=O)OC)[C@H](OC(C)=O)[C@]5(CC)C=CCN6CC[C@]43[C@@H]65)C2)C1 | 0.862 and 0.816
CC[C@]1(O)C[C@@H]2CN(CCc3c([nH]c4ccccc34)[C@@](C(=O)OC)(c3cc4c(cc3OC)N(C)[C@H]3[C@@](O)(C(=O)OC)[C@H](OC(C)=O)[C@]5(CC)C=CCN6CC[C@]43[C@@H]65)C2)C1 [Vinblastine sulfate salt] | 0.875
C[C@H]1CC[C@@H](C(C)(C)O)CC2=C1CC[C@@H]2C | 0.999
CCN(CCCc1ccccc1)CCCc1ccccc1 | 0.817
Cc1c(C)c2c(c(C)c1O)CC[C@@](C)(CCC[C@H](C)CCC[C@H](C)CCCC(C)C)O2 (racemic) ["Tocopherol (R,S)"] | 0.847
CCCCC(CC)COC(=O)c1ccccc1O (stereo not drawn) | 0.909
CC(=O)[C@H]1CC[C@H]2[C@@H]3CC=C4C[C@@H](OC(=O)CCC(=O)O)CC[C@]4(C)[C@H]3CC[C@]12C | 0.769
CCCCCCCCCCC/C=C\C(C)(C)/C=C\CCCC(=O)O ["7,7-Dimethyl-(5Z,8Z)-eicosadienoic acid"] | 1.25
CCCCCCCCCCCCC[N+](C)(C)Cc1ccccc1 | 1.6
Cn1c(-c2ccc3c(c2)OCO3)cc(=O)c2ccccc21 | 0.957
O=S(=O)(O)CCS | 1.11
CCn1cc(C(=O)O)c(=O)c2cnc(N3CCCC3)nc21 | 1.13
Cc1cc2c(cc1Cl)N(C(=O)Nc1cccc3ncccc13)CC2 | 0.759
CC(C)(C)NC[C@H](O)c1ccc(O)c(CO)c1 | 1.2
O[C@H]1[C@H]2c3cc4c(cc3CN3CCC(=C[C@@H]1O)[C@H]23)OCO4 | 1.1
CCCCNC(=O)NS(=O)(=O)c1ccc(C)cc1 [Tolbutamide] | 1.16

Structure (SMILES) | normalized bacterial growth
COc1ccc(-c2oc3ccccc3c(=O)c2O)cc1OC | 0.927
O=C(O)c1cc(-c2ccc(F)cc2F)ccc1O | 1.14
CC(=O)[C@H]1CC[C@H]2[C@@H]3C[C@H](C)C4=CC(=O)CC[C@]4(C)[C@H]3[C@@H](O)C[C@]12C [Medrysone] | 0.832
CC(=O)[C@H]1CC[C@H]2[C@@H]3C[C@H](C)C4=CC(=O)CC[C@]4(C)[C@H]3[C@@H](O)C[C@]12C | 0.412
COC(=O)c1c(C)cc(O)cc1O | 0.916
C=C1C(=O)O[C@@H]2C[C@@]3(C)CCC[C@H](C)C3=C[C@H]12 | 0.965
COc1ccc(-c2cc(=O)c3ccc(O)cc3o2)cc1 | 1.13
OCc1cc(C(O)CNCCCCCCOCCCCc2ccccc2)ccc1O (stereo not drawn) [Salmeterol xinafoate] | 1.1
OCc1cc(C(O)CNCCCCCCOCCCCc2ccccc2)ccc1O (stereo not drawn) [Salmeterol] | 1.13
C#CCN1C(C)=C(C(=O)OC)C(c2cccc([N+](=O)[O-])c2)C(C(=O)OCC)=C1C (stereo not drawn) | 0.905
N=C(N)NCCC[C@H](N)C(=O)O [L-Arginine] | 0.872
O=c1oc2cc(O)ccc2c2oc3cc(O)ccc3c12 | 1.02
CNCCC(Oc1ccc(C(F)(F)F)cc1)c1ccccc1 (stereo not drawn) [Fluoxetine hydrochloride] | 0.733
C[C@@H](NC(=O)/C(C#N)=C/c1ccc(O)c(O)c1)c1ccccc1 [Tyrphostin AG 527] | 1.07
COc1ccc2cc1Oc1ccc(cc1)C[C@H]1c3cc(c(OC)cc3CCN1C)Oc1c(OC)c(OC)cc3c1[C@H](C2)N(C)CC3 | 0.759
O=C1CCc2cc(OCCCCc3nnnn3C3CCCCC3)ccc2N1 [Cilostazol] | 1.07
CCS(=O)(=O)CCn1c([N+](=O)[O-])cnc1C | 0.744
COc1cc(OC)c2c(c1)OC(c1ccccc1)CC2=O (stereo not drawn) | 0.939
CCCCOc1cc(C(=O)NCCN(CC)CC)c2ccccc2n1 | 0.811
CCCCOc1cc(C(=O)NCCN(CC)CC)c2ccccc2n1 [Dibucaine] | 0.917
CC[C@H]1OC(=O)[C@H](C)C(=O)[C@H](C)[C@@H](O[C@@H]2O[C@H](C)C[C@H](N(C)C)[C@H]2O)[C@](C)(OC)C[C@@H](C)C(=O)[C@H](C)[C@H]2N(CCCCn3cnc(-c4cccnc4)c3)C(=O)O[C@]12C | 0.912

From the supplement of paper PMC10398353
